Values from PubChem BioAssay AID720505 (Drosophila RNAi Screening Center, 2013)
Purpose: 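Fly regulators or components of the CRAC channel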 (primary screen). Cells: Drosophila S2R+ cells. Reagents: long dsRNA against Drosophila genes. Conditions: thapsigargin (2 µM) in calcium-free buffer to empty internal stores, then 2 mM calcium added back. Measurement: 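Stores emptied by 2 µM thapsigargin without calcium, then 2 mM calcium re-added; fluo-4 fluorescence followed by FLIPR in 384-well plates, per-well averaged endpoint, raw; two screen passes, some wells retested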. Reading the numbers: calcium signal and retest calcium signal: higher = more calcium entry after store depletion. Call rule: 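About 1500 genes called as lowering calcium entry, by varying amounts, judged against per-plate control wells with STIM1 as positive and Rho1 as negative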. Meaning of the calls: active = called as lowering calcium entry; inactive = not called.
In all, the deposit lists about 20,000 reagents; this is an unselected part of those that have a named target and a result. Of all reagents, about 2,100 (10%) got an active call. 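Raw plate signals without normalisation; calls rest on control-based scores that were not deposited; replicate 2 separates called from uncalled poorly.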 The numbers tell different reagents against one gene apart. Names joined by + are all predicted targets of the reagent. Not stated in the record: the amount of reagent, the time to read-out.

gene knocked down	reagent no.	calcium signal, replicate 1	calcium signal, replicate 2	retest calcium signal, replicate 1	retest calcium signal, replicate 2	call
5-HT2A (GeneID 40575)	1	52.3	121			active
CG12111 (GeneID 31796)	1	254	117			inactive
CG9503 (GeneID 32424)	1	75.9	154			inactive
CG9503 (GeneID 32424)	2	158	119			inactive
Eaat1 (GeneID 34251)	1	225	264			inactive
CG14664 (GeneID 12798232)	1	117	92.7			inactive
LManIII (GeneID 34203)	1	96.6	111			inactive
Muc12Ea (GeneID 32384)	1	117	161	5551	77.8	inactive
rho (GeneID 38168)	1	80.7	98.9			inactive
VhaM9.7-a (GeneID 38521)	1	98.2	97.2			inactive
TpnC73F (GeneID 39916)	1	61.7	106			inactive
CG5359 (GeneID 41222)	1	93.1	84.5			inactive
CG8206 (GeneID 32516)	1	107	138			inactive
CG17107 (GeneID 34467)	1	224	131	97.8	119	inactive
CG17107 (GeneID 34467)	2	113	210			inactive
CG12481 (GeneID 32364)	1	114	107			inactive
CG14000 + bchs	1	184	125			inactive
CG15743 (GeneID 32279)	1	109	84.8			inactive
lin-28 (GeneID 38639)	1	90.5	75.2			inactive
APC4 (GeneID 31835)	1	186	99.1			inactive
CG13101 (GeneID 34221)	1	107	162			inactive
AdipoR (GeneID 42656)	1	207	211			inactive
Cpr78Ca (GeneID 40352)	1	61	135			active
Surf6 (GeneID 42370)	1	209	300			inactive

Entries listed so far whose gene name begins with L or l:
gene knocked down	reagent no.	calcium signal, replicate 1	calcium signal, replicate 2	retest calcium signal, replicate 1	retest calcium signal, replicate 2	call
LManIII (GeneID 34203)	1	96.6	111			inactive
lin-28 (GeneID 38639)	1	90.5	75.2			inactive

The list goes on:
gene knocked down	reagent no.	calcium signal, replicate 1	calcium signal, replicate 2	retest calcium signal, replicate 1	retest calcium signal, replicate 2	call
mol (GeneID 34872)	1	76.8	101	74.8	123	active
mol (GeneID 34872)	2	92.2	105			inactive
mol (GeneID 34872)	3	77.3	100			inactive
CSN4 (GeneID 35759)	1	79.1	82.4			inactive
CG10950 (GeneID 36942)	1	217	173			inactive
BHD (GeneID 38793)	1	119	131			inactive
BHD (GeneID 38793)	2	91.7	96.2			inactive
Coprox (GeneID 44701)	1	105	160	123	99.7	inactive
GstE12 (GeneID 37960)	1	110	144			inactive
Eig71Ek (GeneID 39712)	1	85.3	171			inactive
FucT6 (GeneID 32122)	1	106	122			inactive
bc10 (GeneID 38628)	1	95.5	76.9			inactive
Tsp42Eq (GeneID 35628)	1	125	132			inactive
Art1 (GeneID 41295)	1	121	105			inactive
Pmvk (GeneID 35255)	1	67.5	222			inactive
CG10214 (GeneID 42811)	1	238	232			inactive
CG7737 (GeneID 36174)	1	121	113			inactive
ND-39 (GeneID 40272)	1	118	112			inactive
CR32733 + CG32797	1	8723	131			inactive
CG8160 (GeneID 36701)	1	95.2	219	155	87.7	inactive
CG8160 (GeneID 36701)	2	183	102			inactive
ScpX (GeneID 44183)	1	97.9	122			inactive
CG3494 (GeneID 37903)	1	159	247			inactive
Cpr67B (GeneID 39081)	1	96.4	152			inactive
CG43322 (GeneID 33984)	1	190	73.5			inactive
CG15548 (GeneID 43667)	1	166	157			inactive
Ms (GeneID 44324)	1	279	241			inactive
CG4991 (GeneID 32695)	1	74.5	110			active
cmpy (GeneID 40288)	1	104	96.5			inactive
mRpL38 (GeneID 32375)	1	70.5	119			active
cos (GeneID 35653)	1	67.4	221			active
CG16800 (GeneID 34693)	1	108	163			inactive
